Results published in patent US9521848B2, “Tetrazolinone compound and use therefor” (Sumitomo Chemical Company, Limited, priority 2013, dated 2016).
Some of these results come from one statement about several compounds together.

Columns and labels:
Assay type in all cases: in vivo
[1] = system: wheat leaf blotch fungus (Septoria tritici); test: Wheat leaf blotch control test, foliar spray 4 days before inoculation (Test Examples 9, 10); conditions: wheat (APOGEE), inoculated 4 days after spraying
[2] = system: kidney bean stem rot fungus (Sclerotinia sclerotiorum); test: Kidney bean stem rot control test, foliar spray before inoculation (Test Examples 7, 8); conditions: kidney bean (NAGAUZURA SAITOU), 4 days after inoculation
[3] = system: cucumber anthracnose fungus (Colletotrichum lagenarium); test: Cucumber anthracnose control test, foliar spray before inoculation (Test Example 18); conditions: 200 ppm foliar spray; cucumber (SAGAMI HANJIRO); inoculated 1 day after spraying
[4] = system: barley leaf blotch fungus (Rhynchosporium secalis); test: Barley leaf blotch control test, foliar spray before inoculation (Test Example 15); conditions: 200 ppm foliar spray; barley (MIKAMO GOLDEN); inoculated 2 days after spraying
[5] = system: wheat leaf blotch fungus (Septoria tritici); test: Wheat leaf blotch control test, foliar spray after inoculation (Test Example 11); conditions: 200 ppm foliar spray 3 days after inoculation; wheat (APOGEE)
[6] = system: cucumber powdery mildew fungus (Sphaerotheca fuliginea); test: Cucumber powdery mildew control test, foliar spray before inoculation (Test Examples 12, 13); conditions: cucumber (SAGAMI HANJIRO), 8 days after inoculation
[7] = system: barley net blotch fungus (Pyrenophora teres); test: Barley net blotch control test, foliar spray before inoculation (Test Examples 5, 6); conditions: barley (MIKAMO GOLDEN), inoculated 2 days after spraying
[8] = system: soybean rust fungus (Phakopsora pachyrhizi); test: Soybean rust control test, foliar spray before inoculation (Test Example 14); conditions: 200 ppm foliar spray; soybean (KUROSENGOKU); inoculated 2 days after spraying

Measured: area of lesion spots on the treated plant relative to that on an untreated plant

Cc1cccc(-n2nnn(C)c2=O)c1COc1ccc(-c2ccccc2)c(C)n1 [Present Compound 1, 1-[2-(5-phenyl-6-methyl-pyridin-2-yloxymethyl)-3-methylphenyl]-4-methyl-1,4-dihydrotetrazol-5-one]
≤ 30%: [1]; 200 ppm foliar spray | [1]; 500 ppm foliar spray | [2]; 200 ppm foliar spray | [2]; 500 ppm foliar spray | [3] | [4] | [5] | [6]; 200 ppm foliar spray | [6]; 500 ppm foliar spray | [7]; 200 ppm foliar spray | [7]; 500 ppm foliar spray | [8]

Cc1cccc(-n2nnn(C)c2=O)c1COc1ccc(-c2cccc(Cl)c2)c(C)n1 [Present Compound 2]
≤ 30%: [1]; 200 ppm foliar spray | [1]; 500 ppm foliar spray | [2]; 200 ppm foliar spray | [2]; 500 ppm foliar spray | [3] | [4] | [6]; 200 ppm foliar spray | [6]; 500 ppm foliar spray | [7]; 200 ppm foliar spray | [7]; 500 ppm foliar spray | [8]

COc1ccccc1-c1ccc(OCc2c(C)cccc2-n2nnn(C)c2=O)nc1C [Present Compound 5]
≤ 30%: [1]; 200 ppm foliar spray | [1]; 500 ppm foliar spray | [2]; 200 ppm foliar spray | [2]; 500 ppm foliar spray | [3] | [4] | [6]; 200 ppm foliar spray | [6]; 500 ppm foliar spray | [7]; 200 ppm foliar spray | [7]; 500 ppm foliar spray | [8]

Cc1cc(-c2cccc(C#N)c2)cnc1OCc1c(C)cccc1-n1nnn(C)c1=O [Present Compound 22]
≤ 30%: [2]; 500 ppm foliar spray | [4] | [6]; 200 ppm foliar spray

Cc1cccc(-n2nnn(C)c2=O)c1COc1ccc(-c2ccccc2)nc1C [Present Compound 24, 1-[2-(6-phenyl-2-methyl-pyridin-3-yloxymethyl)-3-methylphenyl]-4-methyl-1,4-dihydrotetrazol-5-one]
≤ 30%: [1]; 200 ppm foliar spray | [3] | [4] | [6]; 200 ppm foliar spray

Cc1cccc(-c2ccc(OCc3c(C)cccc3-n3nnn(C)c3=O)c(C)n2)c1 [Present Compound 25]
≤ 30%: [1]; 200 ppm foliar spray | [1]; 500 ppm foliar spray | [2]; 200 ppm foliar spray | [2]; 500 ppm foliar spray | [3] | [4] | [6]; 200 ppm foliar spray | [6]; 500 ppm foliar spray | [7]; 200 ppm foliar spray | [7]; 500 ppm foliar spray | [8]

COc1ccc(-c2ccc(OCc3c(C)cccc3-n3nnn(C)c3=O)nc2C)c(OC)c1 [Present Compound 27]
≤ 30%: [1]; 500 ppm foliar spray | [2]; 500 ppm foliar spray | [6]; 500 ppm foliar spray | [7]; 500 ppm foliar spray

Cc1cccc(-n2nnn(C)c2=O)c1COc1ccc(-c2ccc(F)cc2C#N)c(C)n1 [Present Compound 29]
≤ 30%: [1]; 500 ppm foliar spray | [2]; 500 ppm foliar spray | [6]; 500 ppm foliar spray | [7]; 500 ppm foliar spray

COc1ccc(Br)cc1-c1ccc(OCc2c(C)cccc2-n2nnn(C)c2=O)nc1C [Present Compound 37, 1-[2-{5-(5-bromo-2-methoxyphenyl)-6-methyl-pyridin-2-yloxymethyl}-3-methylphenyl]-4-methyl-1,4-dihydrotetrazol-5-one]
≤ 30%: [1]; 500 ppm foliar spray | [2]; 500 ppm foliar spray | [6]; 500 ppm foliar spray | [7]; 500 ppm foliar spray

Cc1cc(-c2ccccc2)c(C)nc1OCc1c(C)cccc1-n1nnn(C)c1=O [Present Compound 38, 1-[2-(3,6-dimethyl-5-phenylpyridin-2-yloxymethyl)-3-methylphenyl]-4-methyl-1,4-dihydrotetrazol-5-one]
≤ 30%: [1]; 500 ppm foliar spray | [2]; 500 ppm foliar spray | [6]; 500 ppm foliar spray | [7]; 500 ppm foliar spray

Cc1cc(-c2cccc(Cl)n2)c(C)nc1OCc1c(Cl)cccc1-n1nnn(C)c1=O [Present Compound 52]
≤ 30%: [1]; 500 ppm foliar spray | [6]; 500 ppm foliar spray | [7]; 500 ppm foliar spray

Cc1cccc(-c2cc(C)c(OCc3c(C)cccc3-n3nnn(C)c3=O)nc2C)n1 [Present Compound 53]
≤ 30%: [1]; 500 ppm foliar spray | [6]; 500 ppm foliar spray | [7]; 500 ppm foliar spray

Cc1ccc(-c2cc(C)c(OCc3c(C)cccc3-n3nnn(C)c3=O)nc2C)nc1 [Present Compound 54]
≤ 30%: [1]; 500 ppm foliar spray | [6]; 500 ppm foliar spray | [7]; 500 ppm foliar spray

Cc1ccnc(-c2cc(C)c(OCc3c(C)cccc3-n3nnn(C)c3=O)nc2C)c1 [Present Compound 55]
≤ 30%: [1]; 500 ppm foliar spray | [6]; 500 ppm foliar spray | [7]; 500 ppm foliar spray

Cc1cc(-c2ncccc2C)c(C)nc1OCc1c(C)cccc1-n1nnn(C)c1=O [Present Compound 56]
≤ 30%: [1]; 500 ppm foliar spray | [6]; 500 ppm foliar spray | [7]; 500 ppm foliar spray

CCc1cccc(-n2nnn(C)c2=O)c1COc1nc(C)c(-c2ccc(F)cn2)cc1C [Present Compound 57]
≤ 30%: [1]; 500 ppm foliar spray | [6]; 500 ppm foliar spray | [7]; 500 ppm foliar spray

COc1cccc(-n2nnn(C)c2=O)c1COc1nc(C)c(-c2ccc(F)cn2)cc1C [Present Compound 58]
≤ 30%: [1]; 500 ppm foliar spray | [6]; 500 ppm foliar spray | [7]; 500 ppm foliar spray

Cc1cc(-c2ccc(F)cn2)c(C)nc1OCc1c(C2CC2)cccc1-n1nnn(C)c1=O [Present Compound 59]
≤ 30%: [1]; 500 ppm foliar spray | [6]; 500 ppm foliar spray | [7]; 500 ppm foliar spray

COc1ccccc1-c1ccc(OCc2c(C)cccc2-n2nnn(C)c2=O)c(C)n1 [Present Compound 60]
≤ 30%: [1]; 500 ppm foliar spray | [6]; 500 ppm foliar spray | [7]; 500 ppm foliar spray

Cc1cccc(-n2nnn(C)c2=O)c1COc1ccc(-c2ccccc2C#N)nc1C [Present Compound 61]
≤ 30%: [1]; 500 ppm foliar spray | [6]; 500 ppm foliar spray | [7]; 500 ppm foliar spray

Cc1cccc(-n2nnn(C)c2=O)c1COc1ccc(Oc2ccccc2C#N)nc1C [Present Compound 62, 1-[2-{2-methyl-6-(2-cyanophenoxy)pyridin-3-yloxymethyl}-3-methylphenyl]-4-methyl-1,4-dihydrotetrazol-5-one]
≤ 30%: [1]; 500 ppm foliar spray | [6]; 500 ppm foliar spray | [7]; 500 ppm foliar spray
